The supplement of paper PMC10849652
The other results are listed elsewhere or left out.

By UniProt entry, the sequences of proteins in these tests, tags left out. Where a name states a change or a piece, a line headed by the entry shows the natural chain unless it says otherwise.
UniProt Q9NYU1: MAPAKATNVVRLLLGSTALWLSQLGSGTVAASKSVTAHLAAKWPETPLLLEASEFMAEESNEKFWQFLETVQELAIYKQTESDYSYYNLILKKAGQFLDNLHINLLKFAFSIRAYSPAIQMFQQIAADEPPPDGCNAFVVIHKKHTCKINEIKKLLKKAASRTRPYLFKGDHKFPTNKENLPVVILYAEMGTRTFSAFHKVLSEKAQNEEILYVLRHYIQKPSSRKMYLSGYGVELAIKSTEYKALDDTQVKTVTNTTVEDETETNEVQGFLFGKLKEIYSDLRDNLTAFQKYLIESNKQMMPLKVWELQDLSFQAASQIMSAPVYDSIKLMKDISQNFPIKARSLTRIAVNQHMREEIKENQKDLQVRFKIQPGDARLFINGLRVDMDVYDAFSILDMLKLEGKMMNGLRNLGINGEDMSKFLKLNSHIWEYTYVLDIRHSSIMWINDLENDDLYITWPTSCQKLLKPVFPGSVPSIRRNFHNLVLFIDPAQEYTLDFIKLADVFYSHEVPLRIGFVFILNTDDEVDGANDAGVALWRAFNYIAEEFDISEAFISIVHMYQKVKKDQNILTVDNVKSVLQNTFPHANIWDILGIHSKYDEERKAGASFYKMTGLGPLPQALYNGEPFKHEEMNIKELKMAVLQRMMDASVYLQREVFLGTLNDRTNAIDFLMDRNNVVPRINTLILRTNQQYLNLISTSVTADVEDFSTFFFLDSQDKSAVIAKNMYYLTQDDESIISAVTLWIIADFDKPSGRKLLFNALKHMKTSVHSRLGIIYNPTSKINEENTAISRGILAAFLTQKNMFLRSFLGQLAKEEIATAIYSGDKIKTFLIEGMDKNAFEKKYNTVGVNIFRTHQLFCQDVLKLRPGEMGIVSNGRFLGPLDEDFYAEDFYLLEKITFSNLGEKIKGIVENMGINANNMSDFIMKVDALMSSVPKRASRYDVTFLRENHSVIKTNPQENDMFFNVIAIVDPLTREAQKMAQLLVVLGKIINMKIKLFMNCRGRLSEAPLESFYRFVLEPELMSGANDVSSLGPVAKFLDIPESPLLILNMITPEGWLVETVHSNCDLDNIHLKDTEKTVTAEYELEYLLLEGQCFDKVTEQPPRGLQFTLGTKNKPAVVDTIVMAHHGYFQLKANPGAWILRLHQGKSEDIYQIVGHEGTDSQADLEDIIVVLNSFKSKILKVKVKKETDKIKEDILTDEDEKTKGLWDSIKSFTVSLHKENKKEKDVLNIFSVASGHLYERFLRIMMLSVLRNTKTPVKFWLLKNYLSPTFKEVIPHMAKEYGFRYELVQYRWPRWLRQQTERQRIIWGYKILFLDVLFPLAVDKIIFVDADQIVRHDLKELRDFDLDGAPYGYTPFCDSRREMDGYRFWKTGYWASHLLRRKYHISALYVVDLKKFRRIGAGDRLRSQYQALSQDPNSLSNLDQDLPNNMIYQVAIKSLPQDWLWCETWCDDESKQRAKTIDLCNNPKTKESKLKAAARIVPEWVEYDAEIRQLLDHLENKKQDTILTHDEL
UniProt P50552: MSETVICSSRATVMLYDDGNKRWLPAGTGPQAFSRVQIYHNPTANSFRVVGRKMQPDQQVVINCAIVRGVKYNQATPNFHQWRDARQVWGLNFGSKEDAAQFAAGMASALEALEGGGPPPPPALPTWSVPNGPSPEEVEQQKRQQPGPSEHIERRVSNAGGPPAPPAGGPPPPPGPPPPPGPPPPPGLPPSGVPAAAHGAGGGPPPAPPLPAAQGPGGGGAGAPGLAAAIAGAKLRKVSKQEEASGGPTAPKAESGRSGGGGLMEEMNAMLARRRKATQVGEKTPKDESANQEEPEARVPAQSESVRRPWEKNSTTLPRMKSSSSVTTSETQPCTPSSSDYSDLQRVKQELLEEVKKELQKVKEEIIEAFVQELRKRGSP
UniProt Q9P0L0: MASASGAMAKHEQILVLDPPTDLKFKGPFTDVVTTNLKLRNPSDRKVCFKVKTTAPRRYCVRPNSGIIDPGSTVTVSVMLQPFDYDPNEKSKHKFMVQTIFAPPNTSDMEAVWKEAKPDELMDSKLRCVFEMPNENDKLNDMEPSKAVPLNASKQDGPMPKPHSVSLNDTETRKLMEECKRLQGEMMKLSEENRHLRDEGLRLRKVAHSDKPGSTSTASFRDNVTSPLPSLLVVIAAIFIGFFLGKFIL
UniProt C9J7I0: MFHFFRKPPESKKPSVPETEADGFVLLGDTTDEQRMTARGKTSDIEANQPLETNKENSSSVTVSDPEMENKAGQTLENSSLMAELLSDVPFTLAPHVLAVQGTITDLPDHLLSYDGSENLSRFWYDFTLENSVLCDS
UniProt Q9Y3C8: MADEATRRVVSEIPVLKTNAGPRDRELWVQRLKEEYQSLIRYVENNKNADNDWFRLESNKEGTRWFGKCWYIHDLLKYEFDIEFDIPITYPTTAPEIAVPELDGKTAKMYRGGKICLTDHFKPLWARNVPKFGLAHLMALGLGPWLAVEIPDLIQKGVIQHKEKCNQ

Compound: c1cn2cc(-c3ccc4cn[nH]c4c3)nc(Nc3ccc(N4CCOCC4)cc3)c2n1 [entospletinib]
Test: log2 fold change, soluble protein after heating vs DMSO (PISA); higher = thermal stabilisation; K562 cells, 10 uM, 30 min; active = over 0.2 and 3.5 SD of the protein, either way, in both replicates (recomputed)
Procedure, shortened: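 For each measurement, 10 μM compound was applied for 30 min to K562 cells at 2×10^6 cells/mL. Aliquots were heated for 3 min across 48°C-58°C, pooled, and extracted in PBS with 0.5% NP-40 at 4°C; the supernatant after 21,000xg for 90 min was soluble protein. This was quantified by TMTpro 16plex LC-MS/MS with channel sums equalised, and thermal stability was reported relative to control samples from duplicates, on a log2 fold-change scale.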

log2 fold change, inactive:
UGGT2 (UniProt Q9NYU1) 0.123
VASP (UniProt P50552) 0.015
VAPA isoform 2 (UniProt Q9P0L0) -0.056
UMAD1 (UniProt C9J7I0) 0.071
UFC1 (UniProt Q9Y3C8) 0.024
